These are yes or no findings as the source states them, for the method shown. In cells and extracts the contact can be indirect. A yes stands for co-enrichment or nearness to the bait. Other partners may have been found. For some of these results: A no says only that the protein was not detected with the bait. Sequences can lack the tags named with a protein.
Legend:
Experiment in all cases: affinity purification with mass spectrometry; HA3x-tagged baits stably expressed in Drosophila S2 cells; large-scale affinity purification on α-HA resin, mass spectrometric analysis; minimum score of two unique peptides
[1] = molecular target: T1, HA3x-tagged RELISH (UniProt Q94527)
T1 sequence: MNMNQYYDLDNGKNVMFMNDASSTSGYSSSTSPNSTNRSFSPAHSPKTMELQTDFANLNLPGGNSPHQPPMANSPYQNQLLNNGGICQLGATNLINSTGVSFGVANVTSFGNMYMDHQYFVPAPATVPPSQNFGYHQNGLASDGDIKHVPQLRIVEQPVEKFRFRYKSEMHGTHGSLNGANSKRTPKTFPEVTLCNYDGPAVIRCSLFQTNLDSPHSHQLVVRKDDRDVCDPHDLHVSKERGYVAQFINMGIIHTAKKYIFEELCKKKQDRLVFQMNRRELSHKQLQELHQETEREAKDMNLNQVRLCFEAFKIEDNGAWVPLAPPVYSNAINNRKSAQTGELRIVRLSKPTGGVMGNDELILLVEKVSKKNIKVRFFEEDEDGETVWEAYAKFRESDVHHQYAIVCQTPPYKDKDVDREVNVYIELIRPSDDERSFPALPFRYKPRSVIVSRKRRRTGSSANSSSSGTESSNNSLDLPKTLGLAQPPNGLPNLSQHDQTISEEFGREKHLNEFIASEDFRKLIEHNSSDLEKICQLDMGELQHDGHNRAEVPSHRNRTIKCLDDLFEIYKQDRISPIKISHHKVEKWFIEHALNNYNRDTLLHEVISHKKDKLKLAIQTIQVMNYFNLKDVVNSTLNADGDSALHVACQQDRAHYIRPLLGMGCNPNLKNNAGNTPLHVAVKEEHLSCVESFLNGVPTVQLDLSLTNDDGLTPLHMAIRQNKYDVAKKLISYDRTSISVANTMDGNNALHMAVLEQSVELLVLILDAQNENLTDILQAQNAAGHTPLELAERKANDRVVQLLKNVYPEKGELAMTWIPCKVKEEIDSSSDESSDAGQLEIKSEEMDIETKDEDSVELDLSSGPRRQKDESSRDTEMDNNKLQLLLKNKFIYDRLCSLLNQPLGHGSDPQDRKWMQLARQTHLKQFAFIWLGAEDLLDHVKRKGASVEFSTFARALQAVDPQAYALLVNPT

Sequences of proteins named here, by UniProt entry; tags and fusion partners are left off.
UniProt Q9V3Z6: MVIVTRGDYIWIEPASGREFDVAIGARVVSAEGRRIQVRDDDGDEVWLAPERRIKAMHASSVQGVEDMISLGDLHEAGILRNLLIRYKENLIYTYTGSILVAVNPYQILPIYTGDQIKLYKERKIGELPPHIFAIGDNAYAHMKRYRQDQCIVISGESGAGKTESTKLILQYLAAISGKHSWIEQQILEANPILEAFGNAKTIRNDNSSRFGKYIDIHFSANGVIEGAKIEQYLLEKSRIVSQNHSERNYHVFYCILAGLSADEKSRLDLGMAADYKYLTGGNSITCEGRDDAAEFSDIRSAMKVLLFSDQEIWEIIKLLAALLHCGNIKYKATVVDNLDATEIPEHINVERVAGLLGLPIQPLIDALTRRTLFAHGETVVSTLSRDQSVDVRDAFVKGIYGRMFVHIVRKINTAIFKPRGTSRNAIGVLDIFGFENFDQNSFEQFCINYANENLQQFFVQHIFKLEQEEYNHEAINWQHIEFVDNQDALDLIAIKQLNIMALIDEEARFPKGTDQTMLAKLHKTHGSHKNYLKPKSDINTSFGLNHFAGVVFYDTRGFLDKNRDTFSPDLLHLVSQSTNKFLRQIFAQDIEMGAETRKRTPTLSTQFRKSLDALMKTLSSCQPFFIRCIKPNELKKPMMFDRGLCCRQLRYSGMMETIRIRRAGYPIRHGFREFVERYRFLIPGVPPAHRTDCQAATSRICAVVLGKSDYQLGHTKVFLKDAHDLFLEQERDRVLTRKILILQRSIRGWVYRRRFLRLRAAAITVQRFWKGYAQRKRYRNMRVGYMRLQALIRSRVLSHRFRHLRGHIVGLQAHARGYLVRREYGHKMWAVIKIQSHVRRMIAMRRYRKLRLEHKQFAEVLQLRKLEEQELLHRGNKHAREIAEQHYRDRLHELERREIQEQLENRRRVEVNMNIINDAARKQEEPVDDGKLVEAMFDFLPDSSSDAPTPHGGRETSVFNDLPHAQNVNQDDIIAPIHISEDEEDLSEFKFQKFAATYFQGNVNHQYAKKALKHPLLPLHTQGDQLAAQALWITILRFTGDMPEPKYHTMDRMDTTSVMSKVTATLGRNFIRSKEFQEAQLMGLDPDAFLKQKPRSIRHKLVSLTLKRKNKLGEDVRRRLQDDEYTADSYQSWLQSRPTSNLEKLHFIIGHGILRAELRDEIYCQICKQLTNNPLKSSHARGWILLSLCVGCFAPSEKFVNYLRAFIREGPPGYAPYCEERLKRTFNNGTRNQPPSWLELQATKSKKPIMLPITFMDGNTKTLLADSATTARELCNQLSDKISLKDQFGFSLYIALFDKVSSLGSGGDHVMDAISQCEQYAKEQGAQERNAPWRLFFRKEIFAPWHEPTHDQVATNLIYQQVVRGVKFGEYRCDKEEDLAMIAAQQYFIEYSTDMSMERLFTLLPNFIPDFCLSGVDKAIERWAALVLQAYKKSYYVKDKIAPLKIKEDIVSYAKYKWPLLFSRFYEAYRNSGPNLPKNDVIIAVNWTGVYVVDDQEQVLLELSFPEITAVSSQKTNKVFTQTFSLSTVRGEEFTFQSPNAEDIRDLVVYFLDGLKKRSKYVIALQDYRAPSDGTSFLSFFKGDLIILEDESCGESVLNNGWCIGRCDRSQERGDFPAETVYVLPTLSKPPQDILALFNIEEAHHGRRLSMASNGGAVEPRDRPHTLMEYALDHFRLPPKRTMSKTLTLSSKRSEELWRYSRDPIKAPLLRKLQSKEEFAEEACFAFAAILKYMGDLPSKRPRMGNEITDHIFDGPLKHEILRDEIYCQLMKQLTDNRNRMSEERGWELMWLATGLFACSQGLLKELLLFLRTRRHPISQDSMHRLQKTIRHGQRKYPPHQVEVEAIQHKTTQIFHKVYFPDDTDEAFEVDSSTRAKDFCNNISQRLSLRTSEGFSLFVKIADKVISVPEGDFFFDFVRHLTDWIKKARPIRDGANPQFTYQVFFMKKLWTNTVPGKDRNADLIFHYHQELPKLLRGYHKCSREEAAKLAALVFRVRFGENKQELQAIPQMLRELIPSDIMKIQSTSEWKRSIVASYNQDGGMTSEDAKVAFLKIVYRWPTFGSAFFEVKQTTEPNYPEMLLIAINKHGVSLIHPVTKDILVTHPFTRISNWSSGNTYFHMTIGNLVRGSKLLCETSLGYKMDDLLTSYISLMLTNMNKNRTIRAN

[2] = molecular target: T2, HA3x-tagged DRONC (Drosophila) (UniProt Q9XYF4)
T2 sequence: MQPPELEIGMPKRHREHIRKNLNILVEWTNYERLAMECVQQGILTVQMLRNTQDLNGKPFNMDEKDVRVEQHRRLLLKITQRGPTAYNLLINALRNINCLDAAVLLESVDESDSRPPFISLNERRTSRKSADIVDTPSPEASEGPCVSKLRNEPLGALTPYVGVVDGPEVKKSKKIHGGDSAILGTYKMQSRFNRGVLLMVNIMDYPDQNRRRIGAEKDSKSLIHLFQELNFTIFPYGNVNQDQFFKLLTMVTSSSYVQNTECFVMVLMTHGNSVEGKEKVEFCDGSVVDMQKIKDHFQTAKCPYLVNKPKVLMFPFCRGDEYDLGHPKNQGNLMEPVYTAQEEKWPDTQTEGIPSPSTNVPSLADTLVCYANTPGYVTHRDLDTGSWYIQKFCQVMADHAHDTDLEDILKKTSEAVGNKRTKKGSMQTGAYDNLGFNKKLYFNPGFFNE

[3] = molecular target: T3, HA3x-tagged dTAK1 (UniProt Q9V3Q6)
T3 sequence: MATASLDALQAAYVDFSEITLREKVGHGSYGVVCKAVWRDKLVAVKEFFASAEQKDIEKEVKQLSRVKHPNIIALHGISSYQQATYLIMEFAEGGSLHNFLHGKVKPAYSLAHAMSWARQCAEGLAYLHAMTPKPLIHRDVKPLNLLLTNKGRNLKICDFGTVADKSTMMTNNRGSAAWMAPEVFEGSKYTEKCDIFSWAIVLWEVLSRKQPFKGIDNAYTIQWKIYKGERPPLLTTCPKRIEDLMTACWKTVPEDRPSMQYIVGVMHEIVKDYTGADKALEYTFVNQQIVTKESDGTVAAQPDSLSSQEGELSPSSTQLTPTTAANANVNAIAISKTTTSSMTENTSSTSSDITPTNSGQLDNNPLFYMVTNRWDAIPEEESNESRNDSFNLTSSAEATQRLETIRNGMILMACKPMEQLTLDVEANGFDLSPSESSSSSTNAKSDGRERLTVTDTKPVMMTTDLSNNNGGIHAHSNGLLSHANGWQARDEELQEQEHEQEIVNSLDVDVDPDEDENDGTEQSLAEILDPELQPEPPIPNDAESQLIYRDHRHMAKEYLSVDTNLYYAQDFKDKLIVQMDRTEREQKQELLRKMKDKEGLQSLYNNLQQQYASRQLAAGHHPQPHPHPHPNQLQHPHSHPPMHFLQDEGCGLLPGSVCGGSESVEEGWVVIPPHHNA

[4] = molecular target: T4, HA3x-tagged DIAP2 (UniProt Q24307)
T4 sequence: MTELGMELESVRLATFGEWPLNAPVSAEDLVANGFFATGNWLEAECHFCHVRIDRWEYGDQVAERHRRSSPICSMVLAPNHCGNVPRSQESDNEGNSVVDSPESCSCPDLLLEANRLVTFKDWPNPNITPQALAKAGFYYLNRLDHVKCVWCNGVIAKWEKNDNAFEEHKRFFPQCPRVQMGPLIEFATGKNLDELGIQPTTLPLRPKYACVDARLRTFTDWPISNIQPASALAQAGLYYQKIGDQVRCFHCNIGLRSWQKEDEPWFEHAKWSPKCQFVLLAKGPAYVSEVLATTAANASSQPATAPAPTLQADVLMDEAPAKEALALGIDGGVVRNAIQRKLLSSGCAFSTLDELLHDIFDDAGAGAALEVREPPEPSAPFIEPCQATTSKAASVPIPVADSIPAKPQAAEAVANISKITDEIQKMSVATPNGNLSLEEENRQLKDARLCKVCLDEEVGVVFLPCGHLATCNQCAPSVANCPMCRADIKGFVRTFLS

CRINKLED (CK), endogenous in S2 cells (from UniProt Q9V3Z6 1-2167)
binding [1]: no binding | binding [2]: binds | binding [3]: no binding | binding [4]: no binding

Source: article PMC4792956
